Test results as given in PMC10920091.
No constants are given. Whether binding was seen depends on the method and setting. In cells and extracts the contact can be indirect. Some entries that bind do so weakly or less than the wild type.

The chains behind the UniProt entries cited, without tags or fusion partners. Where a name states a change or a piece, a line headed by the entry shows the natural chain unless it says otherwise. A line that says so, or that is headed by a name, gives the form on record, which may keep a tag or linker.
PDE4D7-VSV (cAMP-specific 3',5'-cyclic phosphodiesterase 4D isoform 7, VSV-tagged) (Q08499, form named): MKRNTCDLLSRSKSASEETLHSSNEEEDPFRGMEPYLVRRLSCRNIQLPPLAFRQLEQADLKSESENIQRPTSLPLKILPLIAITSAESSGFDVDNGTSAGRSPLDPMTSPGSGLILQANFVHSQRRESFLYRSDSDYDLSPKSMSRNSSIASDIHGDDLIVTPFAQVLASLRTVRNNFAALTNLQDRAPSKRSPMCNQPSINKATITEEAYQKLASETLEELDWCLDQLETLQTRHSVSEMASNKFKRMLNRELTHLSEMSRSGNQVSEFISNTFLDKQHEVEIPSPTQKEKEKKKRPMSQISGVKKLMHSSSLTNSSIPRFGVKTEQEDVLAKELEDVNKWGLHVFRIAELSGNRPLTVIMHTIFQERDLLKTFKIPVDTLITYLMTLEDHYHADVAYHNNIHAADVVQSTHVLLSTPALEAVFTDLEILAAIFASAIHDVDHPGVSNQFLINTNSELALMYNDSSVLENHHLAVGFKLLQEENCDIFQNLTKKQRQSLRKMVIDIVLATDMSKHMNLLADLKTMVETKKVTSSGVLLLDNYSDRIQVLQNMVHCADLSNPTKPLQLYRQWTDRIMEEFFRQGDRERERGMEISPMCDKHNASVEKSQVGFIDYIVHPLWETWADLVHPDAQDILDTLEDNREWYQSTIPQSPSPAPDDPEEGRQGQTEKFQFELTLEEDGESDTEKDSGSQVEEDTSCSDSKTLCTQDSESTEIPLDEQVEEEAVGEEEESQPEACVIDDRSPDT

How the values were obtained:
[1] = biological target: endogenous PDE4D7 (human (endogenous in VCaP, LNCaP)) (UniProt Q08499); assay: proximity ligation; endogenous PDE4D7 and DHX9 in fixed, permeabilised LNCaP cells; Duolink In Situ Red kit Goat/Rabbit; confocal Z-stacks
[2] = biological target: endogenous PDE4D7 (human (endogenous in VCaP, LNCaP)) (UniProt Q08499); assay: proximity ligation; endogenous PDE4D7 and DHX9 in LNCaP cells treated with 0.1% DMSO, 10 uM scrambled peptide or 10 uM UCR1 disruptor peptide; PLA signal normalised to DMSO
[3] = biological target: endogenous PDE4D7 (human (endogenous in VCaP, LNCaP)) (UniProt Q08499); assay: co-IP; endogenous proteins, 500 ug VCaP lysate, PDE4D7-specific antibody on Protein G Sepharose overnight, IgG control; blots for PDE4D7 and DHX9
[4] = biological target: PDE4D7-VSV (cAMP-specific 3',5'-cyclic phosphodiesterase 4D isoform 7, VSV-tagged) (human) (UniProt Q08499); assay: co-IP; HEK293 cells co-transfected with PDE4D7-VSV and DHX9-FLAG; IP with VSV-agarose beads; blots for FLAG and VSV

Substance	binding [1]	binding [2]	binding [3]	binding [4]
endogenous DHX9 (ATP-dependant RNA helicase A) (from UniProt Q08211-1 1-1270)	binds	binds	binds	
DHX9-FLAG (ATP-dependent RNA helicase A, FLAG-tagged) (from UniProt Q08211-1 1-1270) (enzyme)				binds
